# Reference: the supplement of paper PMC10849652
# Amino acid sequences for entries named in this document (tags omitted). A change or cut given only in a name is not applied to a line headed by its entry.
# UniProt Q92882: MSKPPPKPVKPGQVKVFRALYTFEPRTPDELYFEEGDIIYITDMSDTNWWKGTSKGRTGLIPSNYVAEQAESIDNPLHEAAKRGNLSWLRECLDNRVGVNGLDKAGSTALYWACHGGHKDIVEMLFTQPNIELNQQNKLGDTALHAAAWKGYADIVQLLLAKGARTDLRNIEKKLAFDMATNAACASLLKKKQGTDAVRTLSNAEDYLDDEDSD
# UniProt P43034: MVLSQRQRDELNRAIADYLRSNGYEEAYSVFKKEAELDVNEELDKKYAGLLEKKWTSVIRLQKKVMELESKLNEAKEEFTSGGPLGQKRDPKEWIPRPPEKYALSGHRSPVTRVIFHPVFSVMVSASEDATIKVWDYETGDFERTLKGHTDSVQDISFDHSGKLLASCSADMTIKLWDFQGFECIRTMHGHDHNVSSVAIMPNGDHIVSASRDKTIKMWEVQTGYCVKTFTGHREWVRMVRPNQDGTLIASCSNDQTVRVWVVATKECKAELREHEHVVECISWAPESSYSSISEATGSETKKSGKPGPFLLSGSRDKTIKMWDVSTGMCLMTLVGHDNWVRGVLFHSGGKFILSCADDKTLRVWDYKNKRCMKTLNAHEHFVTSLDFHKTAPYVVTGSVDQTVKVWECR
# UniProt Q96E22: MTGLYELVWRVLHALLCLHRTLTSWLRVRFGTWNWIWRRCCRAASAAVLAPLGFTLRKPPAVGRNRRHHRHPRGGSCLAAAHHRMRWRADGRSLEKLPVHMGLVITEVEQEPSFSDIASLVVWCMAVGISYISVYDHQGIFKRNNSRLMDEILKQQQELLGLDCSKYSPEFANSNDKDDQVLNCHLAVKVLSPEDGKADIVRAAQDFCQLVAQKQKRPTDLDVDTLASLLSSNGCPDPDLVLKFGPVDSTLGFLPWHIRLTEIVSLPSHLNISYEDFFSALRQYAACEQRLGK
# UniProt Q01968: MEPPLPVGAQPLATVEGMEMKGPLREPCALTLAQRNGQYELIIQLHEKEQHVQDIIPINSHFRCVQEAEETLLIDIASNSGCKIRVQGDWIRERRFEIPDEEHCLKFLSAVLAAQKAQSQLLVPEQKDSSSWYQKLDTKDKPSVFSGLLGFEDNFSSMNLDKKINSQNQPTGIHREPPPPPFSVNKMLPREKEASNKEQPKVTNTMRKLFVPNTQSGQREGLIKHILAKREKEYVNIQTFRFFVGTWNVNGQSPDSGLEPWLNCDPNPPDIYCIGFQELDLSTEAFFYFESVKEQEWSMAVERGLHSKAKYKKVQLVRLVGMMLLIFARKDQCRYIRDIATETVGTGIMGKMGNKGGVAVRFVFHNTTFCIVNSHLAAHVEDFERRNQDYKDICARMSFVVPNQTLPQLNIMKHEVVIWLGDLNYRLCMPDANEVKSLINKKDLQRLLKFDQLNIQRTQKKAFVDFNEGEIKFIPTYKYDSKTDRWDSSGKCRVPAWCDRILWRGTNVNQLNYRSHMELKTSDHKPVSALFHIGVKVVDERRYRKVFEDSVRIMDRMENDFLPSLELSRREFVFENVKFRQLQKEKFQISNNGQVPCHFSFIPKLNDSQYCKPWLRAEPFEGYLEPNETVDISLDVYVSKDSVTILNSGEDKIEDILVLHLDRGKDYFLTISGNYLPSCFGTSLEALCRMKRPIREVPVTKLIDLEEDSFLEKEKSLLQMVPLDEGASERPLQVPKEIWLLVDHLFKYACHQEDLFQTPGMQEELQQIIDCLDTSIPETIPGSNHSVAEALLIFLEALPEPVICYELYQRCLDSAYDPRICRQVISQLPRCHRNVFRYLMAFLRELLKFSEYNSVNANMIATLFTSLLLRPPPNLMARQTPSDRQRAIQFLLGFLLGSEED
# UniProt Q9NTK5, whole entry, looked up: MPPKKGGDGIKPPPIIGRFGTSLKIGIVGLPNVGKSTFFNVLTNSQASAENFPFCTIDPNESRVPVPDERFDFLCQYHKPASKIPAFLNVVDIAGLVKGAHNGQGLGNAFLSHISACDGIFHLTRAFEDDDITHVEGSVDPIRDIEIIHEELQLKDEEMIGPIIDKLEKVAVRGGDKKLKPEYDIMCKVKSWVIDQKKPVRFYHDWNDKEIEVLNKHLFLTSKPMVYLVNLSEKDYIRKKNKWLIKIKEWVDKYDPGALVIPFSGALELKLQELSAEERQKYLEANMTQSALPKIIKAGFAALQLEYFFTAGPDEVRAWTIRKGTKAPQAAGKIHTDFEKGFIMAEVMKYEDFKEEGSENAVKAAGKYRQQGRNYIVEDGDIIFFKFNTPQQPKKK
# UniProt Q6N063: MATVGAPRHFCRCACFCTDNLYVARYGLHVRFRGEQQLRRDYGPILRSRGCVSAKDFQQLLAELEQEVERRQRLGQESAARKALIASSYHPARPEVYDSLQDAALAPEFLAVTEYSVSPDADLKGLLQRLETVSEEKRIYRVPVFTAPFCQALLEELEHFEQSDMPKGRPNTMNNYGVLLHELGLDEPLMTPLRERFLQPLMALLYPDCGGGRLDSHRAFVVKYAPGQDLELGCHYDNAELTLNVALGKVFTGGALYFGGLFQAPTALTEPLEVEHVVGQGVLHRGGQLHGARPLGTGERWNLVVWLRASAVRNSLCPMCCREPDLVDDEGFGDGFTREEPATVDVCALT
# UniProt Q96RD7, whole entry, looked up: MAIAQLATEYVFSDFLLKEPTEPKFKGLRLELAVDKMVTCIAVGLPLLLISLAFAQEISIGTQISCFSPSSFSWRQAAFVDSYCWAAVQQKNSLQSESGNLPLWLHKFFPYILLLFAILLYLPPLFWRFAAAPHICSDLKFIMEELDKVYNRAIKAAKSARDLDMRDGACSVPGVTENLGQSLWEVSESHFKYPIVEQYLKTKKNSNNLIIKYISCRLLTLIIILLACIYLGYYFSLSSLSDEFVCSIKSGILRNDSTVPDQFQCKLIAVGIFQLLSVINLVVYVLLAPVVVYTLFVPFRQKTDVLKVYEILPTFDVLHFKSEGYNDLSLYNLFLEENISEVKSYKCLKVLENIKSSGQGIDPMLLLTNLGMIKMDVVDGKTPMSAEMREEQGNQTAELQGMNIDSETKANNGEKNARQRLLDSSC
# UniProt Q8NFH4: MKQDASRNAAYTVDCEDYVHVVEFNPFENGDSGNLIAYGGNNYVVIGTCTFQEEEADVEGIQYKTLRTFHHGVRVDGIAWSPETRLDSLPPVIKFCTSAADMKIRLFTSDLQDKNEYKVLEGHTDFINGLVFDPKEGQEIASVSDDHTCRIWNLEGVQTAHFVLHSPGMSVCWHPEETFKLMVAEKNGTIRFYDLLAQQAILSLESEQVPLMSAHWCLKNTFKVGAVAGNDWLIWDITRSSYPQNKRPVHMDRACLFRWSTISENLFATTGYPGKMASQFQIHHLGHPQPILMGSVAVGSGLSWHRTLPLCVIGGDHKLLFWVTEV
# UniProt Q9BPZ3: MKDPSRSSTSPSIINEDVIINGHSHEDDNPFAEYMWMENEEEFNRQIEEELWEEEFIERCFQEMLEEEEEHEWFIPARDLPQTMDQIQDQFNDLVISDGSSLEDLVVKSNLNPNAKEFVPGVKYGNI
# UniProt Q8TEW0: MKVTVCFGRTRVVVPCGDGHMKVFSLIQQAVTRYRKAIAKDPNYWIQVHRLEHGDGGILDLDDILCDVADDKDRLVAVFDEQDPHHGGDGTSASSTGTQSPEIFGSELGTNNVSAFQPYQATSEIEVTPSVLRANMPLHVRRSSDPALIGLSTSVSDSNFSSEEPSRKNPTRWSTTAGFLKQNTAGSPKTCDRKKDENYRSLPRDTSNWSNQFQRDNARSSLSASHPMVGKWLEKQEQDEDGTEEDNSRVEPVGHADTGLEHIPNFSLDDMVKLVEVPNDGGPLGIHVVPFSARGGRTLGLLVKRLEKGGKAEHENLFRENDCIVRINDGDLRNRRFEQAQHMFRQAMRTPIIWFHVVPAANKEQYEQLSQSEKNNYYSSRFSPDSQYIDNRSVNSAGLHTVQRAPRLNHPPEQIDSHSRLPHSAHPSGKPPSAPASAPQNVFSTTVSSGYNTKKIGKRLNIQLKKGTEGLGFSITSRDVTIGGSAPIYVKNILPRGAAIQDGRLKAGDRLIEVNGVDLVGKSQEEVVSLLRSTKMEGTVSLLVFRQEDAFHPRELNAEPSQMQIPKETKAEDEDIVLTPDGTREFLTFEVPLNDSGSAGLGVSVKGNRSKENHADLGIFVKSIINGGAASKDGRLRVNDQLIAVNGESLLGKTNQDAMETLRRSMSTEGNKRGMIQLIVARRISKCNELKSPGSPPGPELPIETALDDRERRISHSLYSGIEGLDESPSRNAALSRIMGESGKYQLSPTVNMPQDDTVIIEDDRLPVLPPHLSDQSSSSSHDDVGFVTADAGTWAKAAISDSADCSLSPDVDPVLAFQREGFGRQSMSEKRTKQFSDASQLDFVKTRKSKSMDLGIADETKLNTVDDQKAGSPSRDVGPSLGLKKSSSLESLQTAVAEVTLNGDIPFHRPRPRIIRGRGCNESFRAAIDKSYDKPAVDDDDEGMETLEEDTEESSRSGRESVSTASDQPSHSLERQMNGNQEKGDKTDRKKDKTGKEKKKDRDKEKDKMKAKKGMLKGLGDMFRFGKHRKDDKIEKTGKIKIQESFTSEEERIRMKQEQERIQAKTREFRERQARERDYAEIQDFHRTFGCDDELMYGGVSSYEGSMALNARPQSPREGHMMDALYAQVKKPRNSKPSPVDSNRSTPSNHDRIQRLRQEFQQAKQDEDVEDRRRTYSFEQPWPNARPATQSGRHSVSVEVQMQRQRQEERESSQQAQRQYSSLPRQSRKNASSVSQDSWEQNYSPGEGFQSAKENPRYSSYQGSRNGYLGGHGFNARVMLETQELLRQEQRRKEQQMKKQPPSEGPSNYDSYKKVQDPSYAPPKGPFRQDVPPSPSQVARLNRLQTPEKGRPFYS
# UniProt Q9Y530: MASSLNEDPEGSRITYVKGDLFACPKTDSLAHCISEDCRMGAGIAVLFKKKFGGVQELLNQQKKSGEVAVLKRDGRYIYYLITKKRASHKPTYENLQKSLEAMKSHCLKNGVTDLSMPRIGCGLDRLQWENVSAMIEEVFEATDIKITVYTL
# UniProt Q13438: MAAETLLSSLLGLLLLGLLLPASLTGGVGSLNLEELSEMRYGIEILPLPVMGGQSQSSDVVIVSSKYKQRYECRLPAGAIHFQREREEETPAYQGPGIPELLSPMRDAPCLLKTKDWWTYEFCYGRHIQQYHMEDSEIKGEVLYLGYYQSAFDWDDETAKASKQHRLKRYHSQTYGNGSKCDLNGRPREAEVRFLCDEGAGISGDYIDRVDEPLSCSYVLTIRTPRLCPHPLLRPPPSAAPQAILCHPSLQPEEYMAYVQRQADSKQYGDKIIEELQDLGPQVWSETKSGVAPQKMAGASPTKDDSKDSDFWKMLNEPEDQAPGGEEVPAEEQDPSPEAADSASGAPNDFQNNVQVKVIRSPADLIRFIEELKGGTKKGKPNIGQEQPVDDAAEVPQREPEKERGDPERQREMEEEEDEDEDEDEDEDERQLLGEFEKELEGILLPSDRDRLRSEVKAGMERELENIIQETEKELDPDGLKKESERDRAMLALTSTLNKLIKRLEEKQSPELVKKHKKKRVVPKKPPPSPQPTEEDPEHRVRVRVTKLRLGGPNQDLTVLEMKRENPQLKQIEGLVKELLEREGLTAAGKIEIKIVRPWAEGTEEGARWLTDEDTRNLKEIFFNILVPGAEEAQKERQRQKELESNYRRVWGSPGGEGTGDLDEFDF
# UniProt Q9BZF3: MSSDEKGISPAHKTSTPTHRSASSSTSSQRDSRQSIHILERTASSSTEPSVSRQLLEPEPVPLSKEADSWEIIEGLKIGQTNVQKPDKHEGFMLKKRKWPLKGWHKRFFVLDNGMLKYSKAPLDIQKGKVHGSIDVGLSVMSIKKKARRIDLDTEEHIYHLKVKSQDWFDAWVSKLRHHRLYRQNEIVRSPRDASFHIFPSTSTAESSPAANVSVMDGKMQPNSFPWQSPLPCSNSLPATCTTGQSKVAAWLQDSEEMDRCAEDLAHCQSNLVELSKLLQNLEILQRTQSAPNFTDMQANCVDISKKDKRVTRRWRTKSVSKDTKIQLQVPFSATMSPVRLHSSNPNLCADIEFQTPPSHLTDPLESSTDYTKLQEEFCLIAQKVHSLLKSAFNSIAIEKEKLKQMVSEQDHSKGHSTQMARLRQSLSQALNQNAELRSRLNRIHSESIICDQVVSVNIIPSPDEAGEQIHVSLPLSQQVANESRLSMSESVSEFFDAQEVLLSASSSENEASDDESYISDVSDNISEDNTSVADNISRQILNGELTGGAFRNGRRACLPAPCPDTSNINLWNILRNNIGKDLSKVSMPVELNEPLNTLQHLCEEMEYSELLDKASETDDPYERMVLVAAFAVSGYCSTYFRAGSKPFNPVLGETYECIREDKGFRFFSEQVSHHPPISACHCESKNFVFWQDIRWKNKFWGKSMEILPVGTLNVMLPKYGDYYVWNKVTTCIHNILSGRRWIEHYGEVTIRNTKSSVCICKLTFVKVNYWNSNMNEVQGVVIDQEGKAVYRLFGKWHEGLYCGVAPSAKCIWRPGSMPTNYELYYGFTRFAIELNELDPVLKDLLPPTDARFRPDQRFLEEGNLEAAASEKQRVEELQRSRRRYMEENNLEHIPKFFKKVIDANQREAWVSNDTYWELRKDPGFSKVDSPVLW
# Some of the results follow.
# Tests used:
# Experiment in all cases: log2 fold change, soluble protein after heating vs DMSO (PISA); higher = thermal stabilisation; K562 lysate, 10 uM; active = over 0.2 and 3.5 SD of the protein, either way, in both replicates (recomputed)
# erlotinib = compound: C#Cc1cccc(Nc2ncnc3cc(OCCOC)c(OCCOC)cc23)c1 [erlotinib]
# Summary of the method: (§1)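 Log-two fold change in thermal stability relative to solvent controls is reported from duplicates. For each sample, crude K562 extract from dounce-homogenised pellets in PBS pH 7.4 with 1 mM MgCl2, at 1 mg/mL protein, was treated with 10 μM compound for 30 min. Aliquots heated for 3 min across 48°C-58°C were pooled, brought to 0.5% NP-40 at 4°C and cleared at 21,000xg for 90 min. The supernatant was quantified by TMTpro 16plex LC-MS/MS with channel sums equalised.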
# [1] = compound: C/C(=N\NC(=O)C1=CC(=CC=C1)S(=O)(=O)N2CCOCC2)/C3=C(C=CC(=C3)Cl)O
# Summary of the method: as §1
# [2] = compound: C1=CC(=CC=C1C2=NC3=C(N2)C=C(C=C3)C(=O)N)OC4=CC=C(C=C4)Cl
# Summary of the method: as §1
# [3] = compound: C1=CC2=C(C=CC(=C2)/C=C\3/C(=O)NC(=NCC4=CC=CS4)S3)N=C1
# Summary of the method: as §1
# [4] = compound: C1=CC2=NC=CN=C2C=C1/C=C/3\C(=O)NC(=O)S3
# Summary of the method: as §1
# [5] = compound: C1=CC=C(C=C1)C2=NC(=C(N2)C3=CC=NC=C3)C4=CC(=C(C=C4)Cl)O
# Summary of the method: as §1
# [6] = compound: C1=CC=C2C(=C1)C3=NNC4=CC=CC(=C43)C2=O
# Summary of the method: as §1
# [7] = compound: C1CCN(C1)C(=O)NC2=CC=CC(=C2)NC3=NC=C(C(=N3)NCCC4=CN=CN4)Br
# Summary of the method: as §1
# [8] = compound: C1CN(CCC1(CC2=CC=C(C=C2)Cl)N)C3=NC=NC4=C3C=CN4
# Summary of the method: as §1
# IRAK-1-4 Inhibitor I = compound: C1COCCN1CCN2C3=CC=CC=C3N=C2NC(=O)C4=CC(=CC=C4)[N+](=O)[O-] [IRAK-1-4 Inhibitor I]
# Summary of the method: as §1
Target,log2 fold change (erlotinib),log2 fold change [1],log2 fold change [2],log2 fold change [3],log2 fold change [4],log2 fold change [5],log2 fold change [6],log2 fold change [7],log2 fold change [8],log2 fold change (IRAK-1-4 Inhibitor I)
NUP88 (UniProt Q99567),inactive: 0.006,inactive: -0.023,inactive: 0.041,inactive: -0.001,inactive: 0.006,inactive: -0.077,inactive: 0.017,inactive: 0.004,inactive: 0.018,inactive: 0.011
NUP205 (UniProt Q92621),inactive: 0.03,inactive: -0.022,inactive: -0.018,inactive: 0.049,inactive: -0.008,inactive: -0.013,inactive: -0.06,inactive: -0.009,inactive: 0.035,inactive: 0.005
OSGEP (UniProt Q9NPF4),inactive: 0.012,inactive: -0.002,inactive: 0.041,inactive: -0.148,active: -0.236,inactive: 0.008,inactive: -0.058,inactive: 0.009,inactive: -0.028,inactive: -0.022
OXCT1 (UniProt P55809),inactive: -0.012,inactive: -0.011,inactive: 0.042,inactive: 0.01,inactive: -0.007,inactive: -0.014,inactive: 0.001,inactive: -0.012,inactive: 0.006,inactive: 0.02
OSTF1 (UniProt Q92882),inactive: -0.017,inactive: -0.055,inactive: 0.03,inactive: 0.051,inactive: -0.01,inactive: 0.005,inactive: 0.04,inactive: 0.088,inactive: 0.096,inactive: 0.025
NUTF2 (UniProt P61970),inactive: 0.022,inactive: 0.068,inactive: -0.06,inactive: -0.023,inactive: -0.051,inactive: -0.02,inactive: 0.09,inactive: 0.028,inactive: 0.011,inactive: 0.041
OSTC (UniProt Q9NRP0),inactive: 0.084,inactive: -0.248,inactive: -0.091,inactive: 0.087,inactive: 0.033,inactive: -0.04,inactive: 0.154,inactive: -0.13,inactive: 0.137,inactive: 0.211
ODF2 (UniProt Q5BJF6),inactive: 0.092,inactive: -0.003,inactive: -0.027,inactive: 0.043,inactive: -0.056,inactive: 0.145,inactive: 0.023,inactive: -0.12,inactive: 0.141,inactive: 0.107
ODR4 (UniProt Q5SWX8),inactive: -0.08,inactive: 0,inactive: 0.009,inactive: -0.01,inactive: -0.02,inactive: -0.041,inactive: 0,inactive: -0.022,inactive: -0.074,inactive: 0.045
PAFAH1B1 (UniProt P43034),inactive: -0.046,inactive: -0.116,inactive: -0.009,inactive: 0.009,inactive: 0.007,inactive: 0.011,inactive: 0.062,inactive: 0.007,inactive: -0.011,inactive: -0.03
NUSAP1 (UniProt Q9BXS6),inactive: -0.011,inactive: -0.466,inactive: 0.025,inactive: -0.008,inactive: -0.033,inactive: 0.008,inactive: 0.035,inactive: 0.012,inactive: 0.001,inactive: -0.005
PALM (UniProt O75781),inactive: -0.001,inactive: -0.017,inactive: -0.003,inactive: -0.004,inactive: -0.066,–,inactive: -0.035,inactive: -0.027,inactive: -0.001,–
PACC1 (UniProt Q9H813),inactive: -0.139,inactive: 0.04,inactive: 0.012,inactive: 0.019,inactive: -0.253,inactive: 0.047,inactive: 0.054,inactive: -0.132,inactive: 0.002,inactive: 0.124
NUS1 (UniProt Q96E22),inactive: 0.031,inactive: -0.04,inactive: 0.015,inactive: 0.112,inactive: -0.056,inactive: 0.013,inactive: -0.056,inactive: 0.002,inactive: 0.092,inactive: -0.008
OCRL (UniProt Q01968),inactive: -0.057,inactive: -0.031,inactive: 0.04,inactive: 0.085,inactive: -0.012,inactive: 0.054,inactive: -0.1,inactive: 0.02,inactive: 0.055,inactive: 0.068
OLA1 (UniProt Q9NTK5),inactive: 0.038,inactive: 0.031,inactive: 0.029,inactive: -0.02,inactive: 0.02,inactive: 0.007,inactive: -0.048,inactive: 0.022,inactive: 0.02,inactive: -0.02
OGFOD2 (UniProt Q6N063),inactive: 0.034,inactive: -0.151,inactive: -0.093,inactive: -0.074,inactive: 0.022,inactive: -0.034,inactive: 0.001,inactive: 0.003,inactive: 0.006,inactive: -0.04

# Two entries picked at random from those above:
Target,log2 fold change (erlotinib),log2 fold change [1],log2 fold change [2],log2 fold change [3],log2 fold change [4],log2 fold change [5],log2 fold change [6],log2 fold change [7],log2 fold change [8],log2 fold change (IRAK-1-4 Inhibitor I)
OCRL (UniProt Q01968),inactive: -0.057,inactive: -0.031,inactive: 0.04,inactive: 0.085,inactive: -0.012,inactive: 0.054,inactive: -0.1,inactive: 0.02,inactive: 0.055,inactive: 0.068
NUP88 (UniProt Q99567),inactive: 0.006,inactive: -0.023,inactive: 0.041,inactive: -0.001,inactive: 0.006,inactive: -0.077,inactive: 0.017,inactive: 0.004,inactive: 0.018,inactive: 0.011

# Additional results:

Target,log2 fold change (erlotinib),log2 fold change [1],log2 fold change [2],log2 fold change [3],log2 fold change [4],log2 fold change [5],log2 fold change [6],log2 fold change [7],log2 fold change [8],log2 fold change (IRAK-1-4 Inhibitor I)
PANX1 (UniProt Q96RD7),inactive: -0.041,inactive: 0.027,inactive: 0.024,inactive: 0.01,inactive: -0.011,inactive: -0.004,inactive: -0.011,inactive: -0.018,inactive: -0.005,inactive: 0.03
NXT1 (UniProt Q9UKK6),inactive: -0.027,inactive: -0.029,inactive: 0.006,inactive: 0.046,inactive: 0.133,inactive: 0.029,inactive: -0.05,–,–,inactive: 0.085
PAQR7 (UniProt Q86WK9),inactive: 0.02,–,inactive: 0.184,–,–,–,–,–,–,–
NUP37 (UniProt Q8NFH4),inactive: 0.008,inactive: 0.008,inactive: -0.028,inactive: -0.031,inactive: 0.028,inactive: -0.016,inactive: -0.025,inactive: -0.003,inactive: -0.008,inactive: -0.063
PARK7 (UniProt Q99497),inactive: 0.014,inactive: -0.046,inactive: 0.014,inactive: -0.04,inactive: 0.003,inactive: 0.014,inactive: 0.006,inactive: 0.042,inactive: 0.044,inactive: 0.009
OSBPL2 (UniProt Q9H1P3),inactive: 0.049,inactive: 0.057,inactive: 0.002,inactive: 0,inactive: -0.052,inactive: 0.014,inactive: -0.042,inactive: -0.013,inactive: 0,inactive: -0.014
PAFAH1B3 (UniProt Q15102),inactive: 0.037,inactive: 0.032,inactive: -0.017,inactive: -0.017,inactive: 0.022,inactive: -0.009,inactive: 0.005,inactive: 0.025,inactive: 0.027,inactive: 0.005
PAIP2 (UniProt Q9BPZ3),inactive: 0.044,inactive: 0.041,inactive: -0.016,inactive: -0.01,inactive: 0.004,inactive: -0.054,inactive: -0.053,inactive: -0.044,inactive: 0.022,inactive: 0.017
ORMDL1 (UniProt Q9P0S3),inactive: 0.166,inactive: 0.275,inactive: -0.078,inactive: -0.098,inactive: -0.175,inactive: -0.094,inactive: -0.038,–,–,inactive: -0.097
PARD3 (UniProt Q8TEW0),inactive: 0.1,inactive: -0.288,inactive: 0.051,inactive: -0.146,inactive: -0.029,inactive: 0.021,inactive: 0.007,inactive: 0.067,inactive: 0.017,inactive: 0.028
OARD1 (UniProt Q9Y530),inactive: 0.002,inactive: -0.1,inactive: 0.008,inactive: 0.028,inactive: -0.019,inactive: -0.015,inactive: -0.031,inactive: -0.036,inactive: 0.041,inactive: -0.01
OGT (UniProt O15294),inactive: 0.021,inactive: 0.053,inactive: 0.01,inactive: -0.008,inactive: 0.008,inactive: 0.024,inactive: -0.021,inactive: -0.006,inactive: 0.02,inactive: -0.017
PANK3 (UniProt Q9H999),inactive: -0.208,inactive: 0.097,inactive: -0.046,inactive: 0.011,inactive: 0.051,inactive: -0.116,inactive: -0.112,inactive: -0.009,inactive: -0.052,inactive: 0.058
PAGE2B (UniProt Q5JRK9),inactive: 0.056,inactive: 0.038,inactive: -0.033,inactive: -0.085,–,inactive: -0.021,inactive: 0.093,inactive: 0.055,inactive: 0.055,inactive: 0.148
OSTC isoform 2 (UniProt Q9NRP0),inactive: 0.037,inactive: 0.03,inactive: -0.073,inactive: -0.027,inactive: 0.083,inactive: -0.066,inactive: -0.081,inactive: -0.045,inactive: 0.035,inactive: 0.008
OS9 (UniProt Q13438),inactive: -0.057,inactive: 0.004,inactive: 0.02,inactive: -0.007,inactive: 0.005,inactive: -0.007,inactive: -0.001,inactive: 0.02,inactive: 0.02,inactive: 0.012
OSBPL6 isoform 5 (UniProt Q9BZF3),inactive: 0.182,active: 0.398,inactive: 0.09,inactive: -0.006,inactive: -0.012,inactive: 0.257,inactive: 0.107,inactive: -0.029,inactive: -0.015,inactive: -0.08
